Laboratory results as given in patent US20100104603A1.
Results are given in words; binding and its absence hold for the method and conditions named. Some binding calls cover weakened binding; strength is not graded here.

Sequences of proteins named here, by UniProt entry; tags and fusion partners are left off. A change or cut given only in a name is not applied to a line headed by its entry. Residues count along the entry.
UniProt P10145, residues 28-99: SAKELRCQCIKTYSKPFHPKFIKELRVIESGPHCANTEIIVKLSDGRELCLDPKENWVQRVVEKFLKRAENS
UniProt P13500, residues 24-99: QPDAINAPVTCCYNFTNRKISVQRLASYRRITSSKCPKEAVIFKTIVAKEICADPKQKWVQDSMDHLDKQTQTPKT
UniProt A0A0H3K6Z6: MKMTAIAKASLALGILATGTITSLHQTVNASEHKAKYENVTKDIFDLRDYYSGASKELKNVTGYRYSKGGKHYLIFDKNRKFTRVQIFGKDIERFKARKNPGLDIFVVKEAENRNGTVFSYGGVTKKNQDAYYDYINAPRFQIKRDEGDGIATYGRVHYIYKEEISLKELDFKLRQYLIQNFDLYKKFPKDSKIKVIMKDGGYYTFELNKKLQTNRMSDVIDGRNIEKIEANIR

Key:
IL-8 [1] = molecular target: IL-8 (UniProt P10145); assay: ELISA, IL-8-coated surface, PSGL-1-Ig with SSL5 (legend of FIG. 13)
IL-8 [2] = molecular target: IL-8 (UniProt P10145); assay: flow cytometry, IL-8 on SSL5-pretreated U937 cells (legend of FIG. 10)
MCP-1 = MCP-1 (UniProt P13500); assay: flow cytometry, MCP-1 on SSL5-pretreated U937 cells (legend of FIG. 10)

Measured: binding

Staphylococcal superantigen-like protein 5 (SSL5) of S. aureus strain NTCT 8325, recombinant (from UniProt A0A0H3K6Z6 31-234)
binds: all assays above
